From the supplement of paper PMC12067093, “Discovery and optimisation of a covalent ligand for TRIM25 and its application to targeted protein ubiquitination” (Chemical Science, 2025)
Some of the results follow.

The chains behind the UniProt entries cited, without tags or fusion partners. Where a name states a change or a piece, a line headed by the entry shows the natural chain unless it says otherwise.
UniProt Q00839, whole entry, looked up: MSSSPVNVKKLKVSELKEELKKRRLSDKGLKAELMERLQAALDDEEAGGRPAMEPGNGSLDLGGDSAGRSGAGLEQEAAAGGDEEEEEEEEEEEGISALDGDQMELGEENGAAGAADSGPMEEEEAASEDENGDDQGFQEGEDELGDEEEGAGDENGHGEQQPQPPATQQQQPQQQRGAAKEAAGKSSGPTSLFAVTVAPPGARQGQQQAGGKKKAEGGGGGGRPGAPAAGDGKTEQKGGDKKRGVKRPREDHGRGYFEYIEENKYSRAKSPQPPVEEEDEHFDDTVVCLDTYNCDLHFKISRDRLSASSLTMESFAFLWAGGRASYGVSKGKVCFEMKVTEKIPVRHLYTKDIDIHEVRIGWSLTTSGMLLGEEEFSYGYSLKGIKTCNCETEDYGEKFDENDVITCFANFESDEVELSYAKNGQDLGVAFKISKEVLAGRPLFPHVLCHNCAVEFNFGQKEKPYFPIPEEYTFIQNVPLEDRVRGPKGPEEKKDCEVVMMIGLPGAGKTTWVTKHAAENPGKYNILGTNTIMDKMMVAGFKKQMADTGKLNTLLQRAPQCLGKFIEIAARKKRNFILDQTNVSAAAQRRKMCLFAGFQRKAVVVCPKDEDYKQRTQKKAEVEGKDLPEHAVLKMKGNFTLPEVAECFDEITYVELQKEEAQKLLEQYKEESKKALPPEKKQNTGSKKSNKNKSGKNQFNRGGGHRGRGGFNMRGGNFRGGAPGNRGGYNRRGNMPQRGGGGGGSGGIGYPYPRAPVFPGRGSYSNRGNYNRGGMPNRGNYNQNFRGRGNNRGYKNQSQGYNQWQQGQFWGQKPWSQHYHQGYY
UniProt Q92598: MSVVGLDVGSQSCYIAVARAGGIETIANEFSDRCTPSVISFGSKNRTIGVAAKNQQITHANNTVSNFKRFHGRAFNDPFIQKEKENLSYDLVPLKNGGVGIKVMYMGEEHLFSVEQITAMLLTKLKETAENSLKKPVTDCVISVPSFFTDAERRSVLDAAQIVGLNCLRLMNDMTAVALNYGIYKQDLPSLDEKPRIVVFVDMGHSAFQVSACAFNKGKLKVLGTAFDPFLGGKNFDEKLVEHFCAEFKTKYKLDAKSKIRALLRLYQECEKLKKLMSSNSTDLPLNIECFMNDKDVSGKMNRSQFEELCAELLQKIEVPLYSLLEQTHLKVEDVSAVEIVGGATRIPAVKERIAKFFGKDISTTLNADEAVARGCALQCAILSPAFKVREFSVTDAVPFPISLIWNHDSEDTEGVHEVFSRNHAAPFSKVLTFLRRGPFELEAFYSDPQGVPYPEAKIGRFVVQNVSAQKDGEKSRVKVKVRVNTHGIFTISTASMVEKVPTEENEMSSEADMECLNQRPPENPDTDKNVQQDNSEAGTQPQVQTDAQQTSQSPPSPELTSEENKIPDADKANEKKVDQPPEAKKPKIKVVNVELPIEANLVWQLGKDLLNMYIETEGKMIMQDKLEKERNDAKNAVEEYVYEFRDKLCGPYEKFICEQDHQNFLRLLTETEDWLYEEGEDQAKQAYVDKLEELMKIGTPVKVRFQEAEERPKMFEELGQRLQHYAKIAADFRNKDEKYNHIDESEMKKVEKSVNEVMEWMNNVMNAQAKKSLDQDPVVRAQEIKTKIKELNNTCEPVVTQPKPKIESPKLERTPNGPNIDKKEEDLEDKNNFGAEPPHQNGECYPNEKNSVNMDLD
UniProt O95757: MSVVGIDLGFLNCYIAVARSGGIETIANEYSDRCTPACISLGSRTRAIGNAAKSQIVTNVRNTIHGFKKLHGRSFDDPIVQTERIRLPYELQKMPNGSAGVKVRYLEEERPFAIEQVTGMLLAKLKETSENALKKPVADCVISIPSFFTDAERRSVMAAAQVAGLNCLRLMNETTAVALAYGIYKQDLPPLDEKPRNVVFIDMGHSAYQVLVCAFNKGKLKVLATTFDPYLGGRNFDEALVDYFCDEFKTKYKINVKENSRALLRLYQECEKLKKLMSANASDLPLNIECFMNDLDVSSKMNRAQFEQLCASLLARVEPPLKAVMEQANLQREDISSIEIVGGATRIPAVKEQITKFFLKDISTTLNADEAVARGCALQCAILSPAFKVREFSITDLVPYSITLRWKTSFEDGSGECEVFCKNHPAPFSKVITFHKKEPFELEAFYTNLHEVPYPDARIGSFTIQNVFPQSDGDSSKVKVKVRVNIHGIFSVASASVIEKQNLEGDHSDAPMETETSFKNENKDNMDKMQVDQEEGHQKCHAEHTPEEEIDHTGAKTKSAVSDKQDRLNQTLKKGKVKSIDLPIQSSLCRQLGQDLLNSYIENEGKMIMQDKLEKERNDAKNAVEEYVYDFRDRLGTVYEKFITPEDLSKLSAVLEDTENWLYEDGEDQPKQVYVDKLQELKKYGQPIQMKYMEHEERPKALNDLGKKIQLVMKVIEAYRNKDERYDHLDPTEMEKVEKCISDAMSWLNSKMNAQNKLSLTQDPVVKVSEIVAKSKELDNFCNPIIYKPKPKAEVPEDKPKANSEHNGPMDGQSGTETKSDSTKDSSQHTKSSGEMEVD
UniProt P34932: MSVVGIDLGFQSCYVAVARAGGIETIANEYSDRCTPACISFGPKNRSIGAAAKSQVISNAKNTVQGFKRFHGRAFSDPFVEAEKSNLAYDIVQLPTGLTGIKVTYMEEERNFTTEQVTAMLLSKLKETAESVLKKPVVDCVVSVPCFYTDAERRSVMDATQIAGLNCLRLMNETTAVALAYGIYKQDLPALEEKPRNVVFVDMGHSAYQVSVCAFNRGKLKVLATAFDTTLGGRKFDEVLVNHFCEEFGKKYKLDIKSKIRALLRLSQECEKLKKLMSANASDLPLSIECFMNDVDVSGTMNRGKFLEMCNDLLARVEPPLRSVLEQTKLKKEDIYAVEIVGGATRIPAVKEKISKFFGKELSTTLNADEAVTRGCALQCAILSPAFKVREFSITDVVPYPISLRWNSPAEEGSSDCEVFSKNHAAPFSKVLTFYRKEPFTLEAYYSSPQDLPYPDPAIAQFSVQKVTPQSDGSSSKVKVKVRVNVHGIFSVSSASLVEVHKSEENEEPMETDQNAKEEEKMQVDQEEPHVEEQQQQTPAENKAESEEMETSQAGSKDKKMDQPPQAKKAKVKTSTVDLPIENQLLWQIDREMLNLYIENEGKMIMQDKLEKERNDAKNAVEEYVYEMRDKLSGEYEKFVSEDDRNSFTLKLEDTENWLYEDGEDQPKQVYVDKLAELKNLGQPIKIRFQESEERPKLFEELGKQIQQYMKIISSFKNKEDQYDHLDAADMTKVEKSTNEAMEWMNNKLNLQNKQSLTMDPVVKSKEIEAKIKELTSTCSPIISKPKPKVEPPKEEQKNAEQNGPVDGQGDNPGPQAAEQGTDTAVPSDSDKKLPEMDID
UniProt O14979: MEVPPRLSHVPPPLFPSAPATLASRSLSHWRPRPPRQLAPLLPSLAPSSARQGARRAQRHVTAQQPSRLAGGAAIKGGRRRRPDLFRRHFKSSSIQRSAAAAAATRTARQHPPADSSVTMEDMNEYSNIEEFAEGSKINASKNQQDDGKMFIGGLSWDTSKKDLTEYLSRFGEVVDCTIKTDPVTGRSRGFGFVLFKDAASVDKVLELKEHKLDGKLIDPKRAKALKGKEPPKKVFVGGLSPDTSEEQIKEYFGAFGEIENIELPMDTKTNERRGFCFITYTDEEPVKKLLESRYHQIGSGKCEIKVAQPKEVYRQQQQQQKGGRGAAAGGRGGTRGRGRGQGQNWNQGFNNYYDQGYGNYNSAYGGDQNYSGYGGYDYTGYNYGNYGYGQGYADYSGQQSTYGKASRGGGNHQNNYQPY
UniProt P51659: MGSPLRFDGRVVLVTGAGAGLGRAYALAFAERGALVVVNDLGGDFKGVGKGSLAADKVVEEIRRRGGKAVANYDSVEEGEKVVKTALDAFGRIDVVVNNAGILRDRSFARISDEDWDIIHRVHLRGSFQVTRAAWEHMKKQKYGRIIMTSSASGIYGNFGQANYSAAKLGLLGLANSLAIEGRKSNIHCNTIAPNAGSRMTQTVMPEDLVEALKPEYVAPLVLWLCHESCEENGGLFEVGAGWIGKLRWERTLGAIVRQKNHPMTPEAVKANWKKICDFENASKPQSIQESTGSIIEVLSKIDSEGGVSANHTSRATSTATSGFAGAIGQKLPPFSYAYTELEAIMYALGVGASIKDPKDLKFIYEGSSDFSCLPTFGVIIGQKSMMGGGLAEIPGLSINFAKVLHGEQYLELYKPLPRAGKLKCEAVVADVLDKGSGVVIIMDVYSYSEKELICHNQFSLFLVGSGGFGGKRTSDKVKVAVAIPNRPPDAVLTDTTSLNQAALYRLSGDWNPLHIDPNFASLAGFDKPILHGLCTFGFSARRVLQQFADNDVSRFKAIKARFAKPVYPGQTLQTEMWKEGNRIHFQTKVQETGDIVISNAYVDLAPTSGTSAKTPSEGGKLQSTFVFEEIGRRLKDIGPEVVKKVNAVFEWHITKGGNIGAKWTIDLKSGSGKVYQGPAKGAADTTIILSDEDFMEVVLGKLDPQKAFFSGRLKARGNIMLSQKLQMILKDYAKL
UniProt P04035: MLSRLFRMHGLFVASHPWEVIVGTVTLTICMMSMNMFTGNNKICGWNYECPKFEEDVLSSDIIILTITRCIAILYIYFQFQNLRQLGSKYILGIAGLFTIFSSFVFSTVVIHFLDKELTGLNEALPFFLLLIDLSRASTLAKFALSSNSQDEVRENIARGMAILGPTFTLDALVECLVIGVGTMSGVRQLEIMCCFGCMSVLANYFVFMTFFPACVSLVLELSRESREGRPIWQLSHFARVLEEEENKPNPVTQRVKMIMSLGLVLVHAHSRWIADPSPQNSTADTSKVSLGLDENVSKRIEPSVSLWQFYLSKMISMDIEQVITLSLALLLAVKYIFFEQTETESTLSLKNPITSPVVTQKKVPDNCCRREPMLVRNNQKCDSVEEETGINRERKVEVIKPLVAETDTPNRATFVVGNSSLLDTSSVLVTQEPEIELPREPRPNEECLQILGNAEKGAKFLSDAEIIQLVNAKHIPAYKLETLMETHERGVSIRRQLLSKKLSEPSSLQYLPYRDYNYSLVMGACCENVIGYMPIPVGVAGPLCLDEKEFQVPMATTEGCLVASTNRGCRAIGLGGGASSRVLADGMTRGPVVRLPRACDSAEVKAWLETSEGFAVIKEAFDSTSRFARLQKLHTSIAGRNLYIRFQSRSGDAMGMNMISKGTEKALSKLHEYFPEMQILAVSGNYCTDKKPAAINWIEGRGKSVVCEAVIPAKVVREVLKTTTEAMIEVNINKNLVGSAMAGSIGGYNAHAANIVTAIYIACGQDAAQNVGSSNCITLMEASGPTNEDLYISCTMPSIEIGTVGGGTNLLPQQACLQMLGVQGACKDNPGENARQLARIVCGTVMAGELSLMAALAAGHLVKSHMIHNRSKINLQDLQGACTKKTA
UniProt Q8WVV9: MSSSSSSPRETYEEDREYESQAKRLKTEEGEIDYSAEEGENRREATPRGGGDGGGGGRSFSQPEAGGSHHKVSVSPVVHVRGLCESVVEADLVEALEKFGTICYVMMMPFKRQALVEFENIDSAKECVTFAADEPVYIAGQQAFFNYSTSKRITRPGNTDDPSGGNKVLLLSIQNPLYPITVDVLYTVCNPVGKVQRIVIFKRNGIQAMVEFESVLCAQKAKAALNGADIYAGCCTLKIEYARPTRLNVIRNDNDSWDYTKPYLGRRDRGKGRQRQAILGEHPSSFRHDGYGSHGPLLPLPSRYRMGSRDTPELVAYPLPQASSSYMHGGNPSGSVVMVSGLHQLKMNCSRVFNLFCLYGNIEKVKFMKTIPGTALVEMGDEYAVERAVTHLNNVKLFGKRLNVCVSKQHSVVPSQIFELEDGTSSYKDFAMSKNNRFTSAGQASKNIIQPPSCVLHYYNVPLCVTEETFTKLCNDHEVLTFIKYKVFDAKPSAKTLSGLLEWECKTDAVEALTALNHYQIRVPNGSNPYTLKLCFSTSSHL
UniProt P10809, whole entry, looked up: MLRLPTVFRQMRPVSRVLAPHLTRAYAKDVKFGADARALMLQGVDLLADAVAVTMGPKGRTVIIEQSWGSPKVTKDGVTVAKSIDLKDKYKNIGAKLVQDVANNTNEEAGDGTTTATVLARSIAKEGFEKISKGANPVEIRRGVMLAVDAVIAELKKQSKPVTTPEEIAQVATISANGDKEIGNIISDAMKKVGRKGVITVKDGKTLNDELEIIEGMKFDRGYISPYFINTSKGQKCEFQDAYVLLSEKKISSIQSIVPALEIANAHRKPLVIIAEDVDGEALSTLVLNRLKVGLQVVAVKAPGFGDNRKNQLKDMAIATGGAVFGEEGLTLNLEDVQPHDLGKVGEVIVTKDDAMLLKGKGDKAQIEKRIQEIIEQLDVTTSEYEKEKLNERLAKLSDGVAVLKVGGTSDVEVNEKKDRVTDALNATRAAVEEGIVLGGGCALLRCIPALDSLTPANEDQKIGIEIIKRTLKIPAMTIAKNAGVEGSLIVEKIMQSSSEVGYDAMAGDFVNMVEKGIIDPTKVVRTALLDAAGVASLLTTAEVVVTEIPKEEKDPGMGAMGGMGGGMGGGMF

Compound: CC1Cc2ccccc2N1C(=O)C1CCCN(C1)C(=O)CCl (mixture of isomers) [TRIM25 ligand 11 (diastereomer mixture)]
Assay: probe-labelled cysteine peptide fold change vs DMSO (competition) (log2 fold change); higher = less target engagement (more negative = stronger competition)
Details: THP-1, incubation time: 4 h
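Note: competitive chemoproteomic profiling in live THP-1 cells with an iodoacetamide desthiobiotin (IA-DTB) probe, comparing probe-labelled peptide intensities in compound-treated cells against DMSO-treated controls.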

Target | probe-labelled cysteine peptide fold change (10 µM) | probe-labelled cysteine peptide fold change (50 µM)
HNRNPU_Q00839_607_KAVVVCPK (UniProt Q00839) | -0.0915 | -0.179
HTATIP2_Q9BUP3_91_NVNQEVVDFEKLDDYASAFQGHDVGFCCLGTTR (UniProt Q9BUP3) | -0.287 | 0.0321
HSPH1_Q92598_658_FICEQDHQNFLR (UniProt Q92598) | 0.0618 | 0.177
HNRNPF_P52597_34_GLPWSCSVEDVQNFLSDCTIHDGAAGVHFIYTR (UniProt P52597) | 0.148 | 0.00236
HSPA4L_O95757_140_KPVADCVISIPSFFTDAERR (UniProt O95757) | -0.0435 | -0.0286
HSPA4_P34932_270_LSQECEK (UniProt P34932) | 0.083 | 0.0404
HSPA4_P34932_140+146_KPVVDCVVSVPCFYTDAERR (UniProt P34932) | -0.0726 | -0.147
HNRNPDL_O14979_277_GFCFITYTDEEPVK (UniProt O14979) | 0.00264 | -0.0345
HSD17B4_P51659_189_SNIHCNTIAPNAGSR (UniProt P51659) | 0.0271 | -0.0918
HSDL1_Q3SXM5_42_SITVICDFYSLIR (UniProt Q3SXM5) | -0.156 | 0.00598
HMGCR_P04035_600_ACDSAEVK (UniProt P04035) | -0.442 | 0.128
HMGCR_P04035_382_CDSVEEETGINR (UniProt P04035) | 0.0226 | 0.0105
HNRNPLL_Q8WVV9_505_TLSGLLEWECKTDAVEALTALNHYQIR (UniProt Q8WVV9) | -0.494 | -0.227
HSPD1_P10809_237_CEFQDAYVLLSEK (UniProt P10809) | 0.0581 | -0.103
